Inconclusive results, whose numbers are uncertain, are shown with a selection of clear calls. Potencies beside an inconclusive call are fits to weak or partial responses and may not hold up. Active and inactive are the calls of the source. The call rests on the fitted dose curve.
target: Beta-2 adrenergic receptor (Homo sapiens) (UniProt P07550); assay: Adrenergic beta2 receptor (ADRB2) small molecule agonists, cell-based qHTS assay (AID 1963593); conditions: CHO-ADRB2 cells, cAMP HTRF, 30 min; activation: at 92.4 µM (top of the series) unless noted;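 on activation: CHO cells stably overexpressing human ADRB2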
Summary of the method: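 CHO cells stably over-expressing ADRB2 were plated overnight at 37C, then dosed with compounds plus a stimulation mix containing 100uM IBMX and 25uM Ro-20-1724 for 0.5hr at room temperature. cAMP was measured by HTRF competition, 1hr.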
On the % scale 0 is the no-effect control and ±100 the full control effect; potency means the concentration at half of the fitted maximal effect.

| Structure (SMILES) | Potency | activation |
| --- | --- | --- |
| COc1ccc(OC)c(NC(=O)CC(C)=O)c1 | inconclusive: 30600 nM [inhibitor, full curve] |  |
| COc1ccc(OC)c(C(O)CNC(=O)CN)c1 (stereo not given) |  | inconclusive: 19.2% |
| O=C1CC2CC1C1CCCC21 (stereo not given) | inactive |  |
| Cc1ccccc1N=C(N)Nc1ccccc1C |  | inconclusive: -29.7% |
| O=C(O)CC(O)C(=O)O (stereo not given) |  | inconclusive: -25.1% |
| CC(CCO)CCCC(C)(C)O (stereo not given) | inconclusive: 969 nM [inhibitor, full curve, poor fit] |  |
| Cn1ccnc1 |  | inconclusive: -27.7% |
| CC(N)C12CC3CC(CC(C3)C1)C2 (stereo not given) | inactive |  |
| O=C(O)C[C@H](NC(=O)OCc1ccccc1)C(=O)O |  | inconclusive: 18.2% |
| Nc1ccc(S(=O)(=O)NC(=O)c2ccccc2)cc1 | inconclusive: 376 nM [inhibitor, partial curve, poor fit] |  |
| BrCCOc1ccccc1 |  | inconclusive: 10.6% |
| C=C(C)CCO | inconclusive: 611 nM [inhibitor, single point] |  |
| O=C1CCCC(=O)C1 |  | inconclusive: -1.03% |
| CCCCCC(=O)CC | inactive |  |
| CCCCc1ccc(N)cc1 |  | inconclusive: -1.14% |
| CC(NC(CCc1ccccc1)C(=O)O)C(=O)N1C(=O)N(C)CC1C(=O)O (stereo not given) |  | inconclusive: 17.8% [at 42.5 µM] |
| O=C(O)[C@@H](O)[C@H](O)[C@H](O)[C@@H](O)C(=O)O | inactive |  |
| CC/C=C(\C)C=O | inconclusive: 243 nM [inhibitor, partial curve, poor fit] |  |
| O=C(CCCCC(=O)Nc1c(I)cc(I)c(C(=O)O)c1I)Nc1c(I)cc(I)c(C(=O)O)c1I | inconclusive: 668 nM [inhibitor, single point] |  |
| O=C1NC(c2ccccc2)(c2ccccc2)C(=O)N1COP(=O)(O)O | inactive |  |

3 compounds picked at random from the list so far, as already listed:

| Structure (SMILES) | Potency | activation |
| --- | --- | --- |
| Cc1ccccc1N=C(N)Nc1ccccc1C |  | inconclusive: -29.7% |
| CC(N)C12CC3CC(CC(C3)C1)C2 (stereo not given) | inactive |  |
| CC/C=C(\C)C=O | inconclusive: 243 nM [inhibitor, partial curve, poor fit] |  |

Additional compounds:

| Structure (SMILES) | Potency | activation |
| --- | --- | --- |
| CC(=O)CC(N)=O | inactive |  |
| C=C(C)[C@@H]1CC=C(C)C(=O)C1 |  | inconclusive: -19.8% |
| CO[C@@H]1[C@@H](OC(N)=O)[C@@H](O)[C@H](Oc2ccc3c(O)c(NC(=O)c4ccc(O)c(CC=C(C)C)c4)c(=O)oc3c2C)OC1(C)C | inconclusive: 119 nM [inhibitor, single point] |  |
| CC(S)C(=O)NCC(=O)O (stereo not given) | inactive |  |
| O=C(CN1CCN(Cc2ccc3c(c2)OCO3)CC1)N1c2ccccc2Sc2ccccc21 | inconclusive: 1190 nM [inhibitor, single point] |  |
| Nc1ccc(Cl)cc1Cl |  | inconclusive: -59.6% |
| CC(=O)Nc1ccc(OC(=O)c2ccccc2OC(C)=O)cc1 | inactive |  |
| NC(N)=NCCC[C@H](N)C(=O)O |  | inconclusive: -27.9% [at 8.39 µM] |
| CCCCCCCCc1ccc(Nc2ccc(CCCCCCCC)cc2)cc1 | inactive |  |
| CCCO | inactive |  |
| CCCCCOC(=O)CCCC |  | inconclusive: -25.5% |
| CC1Cc2ccccc2N1NC(=O)c1ccc(Cl)c(S(N)(=O)=O)c1 (stereo not given) |  | inconclusive: 12.7% [at 42.5 µM] |
| CCCCCCCCCCCCCCCCBr |  | inactive: -6.98% [at 19 µM] |
| O=P(O)(OCc1ccccc1)OCc1ccccc1 |  | inconclusive: 25.8% |
| COCCOCC(OC)OC |  | inconclusive: 0.473% [at 42.5 µM] |
| C1CCCCC1 |  | inconclusive: -27.6% |
| CCCCCCCCCCCCCCCCCBr |  | inactive: 8.09% [at 19 µM] |
| CCOC(=O)[C@H](CCc1ccccc1)N[C@H]1CS[C@H](c2cccs2)CN(CC(=O)O)C1=O |  | inconclusive: 5.31% [at 42.5 µM] |
| CCC(CO)(CO)COCC(CC)(CO)CO |  | inconclusive: 7.82% |
| CC1OC1C1CCC2(C)OC2C1 (stereo not given) |  | inconclusive: 0.0876% |
